Ten compounds from PubChem BioAssay AID248 (DTP/NCI, 2004) can be followed below.

For the experiment, the system named is L1210 leukemia ip in BDF1 mice, survival T/C. The experiment can be described thus: NCI In Vivo Anticancer Drug Screen. Data for tumor model L1210 Leukemia (intraperitoneal) in B6D2F1 (BDF1) mice. To be noted: T/C endpoint: mean survival time, higher T/C = longer survival.
[1] abbreviates: dose: 600.0 mg/kg/injection, schedule: Q01DX009 (ip), vehicle: saline.
Where [2] appears, read: dose: 100.0 mg/kg/injection, schedule: Q04DX003 (ip), vehicle: saline.
Setting [3] is: dose: 200.0 mg/kg/injection, schedule: Q04DX003 (ip), vehicle: saline.
[4] abbreviates: dose: 400.0 mg/kg/injection, schedule: Q04DX003 (ip), vehicle: saline.
Setting [5] is: dose: 67.0 mg/kg/injection, schedule: Q01DX001 (ip), vehicle: saline.
Setting [6] is: dose: 200.0 mg/kg/injection, schedule: Q01DX001 (ip), vehicle: saline.

The list is a part of this screen's results and no random one: it gathers tests that were run many times, whatever their T/C, doses with no T/C, and many T/C values between a quarter and a half above the control. Other doses and runs of a compound stand elsewhere. T/C gives the treated animals as a percentage of the vehicle group. Some doses have a count of surviving animals in place of a T/C: the source holds a T/C of zero for them, seemingly a mark for toxic or unscored doses. Some survivor counts are full or nearly so, which does not show that the dose was tolerated: survival well below the control is almost never listed, so the zero probably covers shortened survival too. Counts of survivors are from the toxicity check (mostly the fifth day) where no day follows; animals may have died later. Schedules are NCI's codes, taken here to give the interval after Q, in days (D) or hours (H), and the number of doses after X. Some entries were tested several times; the values are given in rising order. Some schedule codes hold Z or #, which are not explained here. For survival time, this PubChem deposit counts one and a half times the control or more as active, and values a quarter to a half above the control carry no call in these data; other NCI protocols may use other cut-offs. Some T/C values carry the count of animals alive at the toxicity check (mostly the fifth day); where none is given, no animal had died by that day.

Regarding `O=[N+]([O-])c1cc(S(=O)(=O)C(F)F)ccc1Cl`, the survivor count reads like this: (dose: 200.0 mg/kg/injection, schedule: Q01DX009 (ip), vehicle: gum acacia) 2 of 6; (dose: 200.0 mg/kg/injection, schedule: Q04DX003 (ip), vehicle: gum acacia) 4 of 6; (dose: 400.0 mg/kg/injection, schedule: Q04DX003 (ip), vehicle: gum acacia) 0 of 6.
As for `CCCCOP(=O)(N1CC1C)N1CC1C` (stereo unspecified), the T/C was 143 % of control (dose: 66.0 mg/kg/injection, schedule: Q01DX001 (ip), vehicle: saline) and 142 % of control (dose: 170.0 mg/kg/injection, schedule: Q04DX003 (ip), vehicle: acetone). Moreover, the survivor count by setting is: (dose: 110.0 mg/kg/injection, schedule: Q04DX003 (ip), vehicle: acetone) 5 of 6; (dose: 255.0 mg/kg/injection, schedule: Q04DX003 (ip), vehicle: acetone) 6 of 6.
Take `CS(=O)(=O)OCC(=O)NCCNC(=O)COS(C)(=O)=O`: the T/C (dose: 66.6 mg/kg/injection, schedule: Q01DX Z (ip), vehicle: carboxymethylcellulose (CMC)) was 130 % of control; the T/C (dose: 70.0 mg/kg/injection, schedule: Q01DX Z (ip), vehicle: carboxymethylcellulose (CMC)) was 139 % of control; the T/C (dose: 80.0 mg/kg/injection, schedule: Q01DX009 (ip), vehicle: saline) is 139 % of control; the T/C (dose: 100.0 mg/kg/injection, schedule: Q01DX015 (ip), vehicle: saline) is 127 % of control; the T/C (dose: 100.0 mg/kg/injection, schedule: Q01DX Z (ip), vehicle: carboxymethylcellulose (CMC)) was 132 % of control; the T/C (dose: 120.0 mg/kg/injection, schedule: Q01DX009 (ip), vehicle: saline) is 141 % of control. The T/C is 145 % of control (dose: 180.0 mg/kg/injection, schedule: Q01DX009 (ip), vehicle: saline); 135 % of control (dose: 200.0 mg/kg/injection, schedule: Q01DX Z (ip), vehicle: saline); 132 % of control (dose: 400.0 mg/kg/injection, schedule: Q01DX015 (ip), vehicle: saline); 143 % of control (dose: 400.0 mg/kg/injection, schedule: Q04DX003 (ip), vehicle: carboxymethylcellulose (CMC)); 136 % of control [5 of 6 alive] under setting [1]; 133 % of control [5 of 6 alive] (dose: 600.0 mg/kg/injection, schedule: Q04DX003 (ip), vehicle: saline). Moreover, where the note is “dose: 1200.0 mg/kg/injection, schedule: Q04DX003 (ip), vehicle: saline”, the T/C was 136 % of control. In addition, the survivor count reads like this: under setting [1], 1 of 6 and 2 of 6; (dose: 600.0 mg/kg/injection, schedule: Q01DX Z (ip), vehicle: carboxymethylcellulose (CMC)) 1 of 6; (dose: 800.0 mg/kg/injection, schedule: Q01DX009 (ip), vehicle: saline) 1 of 6.
As for `C[N+](C)(C)c1ccc(/C=N\O)cc1`, the survivor count is, setting by setting: (dose: 25.0 mg/kg/injection, schedule: Q04DX003 (ip), vehicle: saline) 0 of 6; under setting [2], 0 of 6; under setting [3], 0 of 6; under setting [4], 0 of 6.
As to `CC(C)(SCCc1ccc([N+](=O)[O-])cc1)C(N)C(=O)O` (stereo unspecified), the survivor count is, setting by setting: (dose: 100.0 mg/kg/injection, schedule: Q04DX003 (ip), vehicle: Klucel (hydroxypropylcellulose) (HPC)) 1 of 6; (dose: 200.0 mg/kg/injection, schedule: Q04DX003 (ip), vehicle: Klucel (hydroxypropylcellulose) (HPC)) 0 of 6; (dose: 400.0 mg/kg/injection, schedule: Q04DX003 (ip), vehicle: Klucel (hydroxypropylcellulose) (HPC)) 0 of 6.
On to `Cc1ccc([As+](c2ccccc2)(c2ccccc2)c2ccccc2)cc1`, for which the survivor count by setting is: (dose: 40.0 mg/kg/injection, schedule: Q01DX001 (ip), vehicle: saline) 2 of 6; (dose: 80.0 mg/kg/injection, schedule: Q01DX001 (ip), vehicle: saline) 0 of 6.
`CCCCCCCCCCCCOP(=O)(N1CC1(C)C)N1CC1(C)C` (stereo unspecified): the survivor count (dose: 100.0 mg/kg/injection, schedule: Q04DX002 (ip), vehicle: saline) is listed as 3 of 3; the survivor count (dose: 200.0 mg/kg/injection, schedule: Q04DX002 (ip), vehicle: saline) is 1 of 3; the survivor count (dose: 400.0 mg/kg/injection, schedule: Q04DX002 (ip), vehicle: saline) is given as 0 of 3.
With `CS(=O)(=O)OCCF`, the survivor count is, setting by setting: (dose: 10.0 mg/kg/injection, schedule: Q01DX009 (ip), vehicle: carboxymethylcellulose (CMC)) 4 of 6; (dose: 12.5 mg/kg/injection, schedule: Q04DX003 (ip), vehicle: saline with Tween-80) 2 of 6; (dose: 18.0 mg/kg/injection, schedule: Q01DX009 (ip), vehicle: saline) 0 of 6; (dose: 25.0 mg/kg/injection, schedule: Q01DX009 (ip), vehicle: acetone) 6 of 6; (dose: 25.0 mg/kg/injection, schedule: Q04DX003 (ip), vehicle: saline with Tween-80) 0 of 6; (dose: 27.0 mg/kg/injection, schedule: Q01DX009 (ip), vehicle: saline) 0 of 6. In addition, the survivor count is 0 of 6 (dose: 36.0 mg/kg/injection, schedule: Q01DX009 (ip), vehicle: saline); 2 of 4 (dose: 50.0 mg/kg/injection, schedule: Q01DX001 (ip), vehicle: saline); 5 of 6 (dose: 50.0 mg/kg/injection, schedule: Q01DX009 (ip), vehicle: acetone); 1 of 6 and 4 of 6 (dose: 50.0 mg/kg/injection, schedule: Q01DX015 (ip), vehicle: saline); 2 of 6 (dose: 50.0 mg/kg/injection, schedule: Q04DX003 (ip), vehicle: saline); 2 of 4, 3 of 6, 4 of 4 under setting [5]. The survivor count runs as follows: (dose: 100.0 mg/kg/injection, schedule: Q01DX001 (ip), vehicle: saline) 0 of 6, 1 of 4, 2 of 4, 3 of 6; under setting [2], 2 of 6; (dose: 150.0 mg/kg/injection, schedule: Q01DX001 (ip), vehicle: saline) 0 of 4, 1 of 4, 3 of 4; under setting [6], 0 of 6, 1 of 6, 1 of 4; under setting [3], 2 of 6; (dose: 400.0 mg/kg/injection, schedule: Q01DX001 (ip), vehicle: saline) 1 of 6. Further, the survivor count under setting [4] is 0 of 6. Besides, the T/C was 125 % of control [4 of 6 alive] (dose: 18.0 mg/kg/injection, schedule: Q01DX015 (ip), vehicle: saline); 131 % of control (dose: 25.0 mg/kg/injection, schedule: Q01DX001 (ip), vehicle: saline); 97 % of control [3 of 4 alive] under setting [5]; 130 % of control [5 of 6 alive] (dose: 100.0 mg/kg/injection, schedule: Q01DX001 (ip), vehicle: carboxymethylcellulose (CMC)); 109 % of control (dose: 100.0 mg/kg/injection, schedule: Q01DX001 (ip), vehicle: saline, evaluated on day 30); 132 [3 of 4 alive] and 161 % of control [5 of 6 alive] (dose: 100.0 mg/kg/injection, schedule: Q01DX001 (ip), vehicle: saline, run until all animals had died). The T/C by setting is: (dose: 150.0 mg/kg/injection, schedule: Q01DX001 (ip), vehicle: carboxymethylcellulose (CMC)) 133 % of control [4 of 6 alive]; (dose: 150.0 mg/kg/injection, schedule: Q01DX001 (ip), vehicle: saline, evaluated on day 30) 147 % of control [4 of 6 alive]; (dose: 150.0 mg/kg/injection, schedule: Q01DX001 (ip), vehicle: saline, run until all animals had died) 154 % of control [5 of 6 alive]; under setting [6], 87 % of control [3 of 4 alive].
As for `Nc1nc(Br)cs1`, under setting [4], the survivor count is 0 of 6.
Take `COC(=O)C1OC1(C)c1ccc(C)cc1` (stereo unspecified): the survivor count (dose: 200.0 mg/kg/injection, schedule: Q01DX009 (ip), vehicle: saline with Tween-80) is 3 of 3.
